{"source": "PubChem BioAssay AID504786 (Drosophila RNAi Screening Center, 2011)", "screen": "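Positive regulators of HIF-driven reporter output in Drosophila cells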 (primary screen)", "cell system": "Drosophila S2 cells with a stable HIF luciferase reporter", "knock-down reagent": "long dsRNA against Drosophila genes, about 0.2 µg dsRNA per well of a 384-well plate", "time to read-out": "three days of knock-down, then 20 h of DFO before reading", "treatment": "desferrioxamine (DFO) at 100 µM, an iron chelator that mimics hypoxia, for 20 h", "detection": "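Firefly luciferase driven by the mouse ldh-a hypoxia-response element, measured after 20 h of 100 µM DFO; z-scores per plate, higher means more signal lost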", "reading the numbers": "z-score: higher = stronger loss of HIF reporter signal", "note": "In all, the deposit lists about 21,000 reagents; this is an unselected part of those with a known target gene and a result. 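Primary screen; positive scores mean lost reporter signal, so the sign may be inverted from the usual convention.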 Reagents against one gene are numbered here. Names joined by + are all predicted targets of the reagent. Further read-outs or replicates are left out here. Reagent sequences are not shown."}
{"Gene": "a6 (GeneID 31127)", "reagent": 1, "z-score, replicate 1": -0.2}
{"Gene": "peb (GeneID 31391)", "reagent": 1, "z-score, replicate 1": 0.7}
{"Gene": "Or23a (GeneID 33450)", "reagent": 1, "z-score, replicate 1": -0.2}
{"Gene": "CG14851 (GeneID 41763)", "reagent": 1, "z-score, replicate 1": -0.4}
{"Gene": "CG40005 (retired record) + cta", "reagent": 1, "z-score, replicate 1": -0.6}
{"Gene": "CG42673 (GeneID 39111)", "reagent": 1, "z-score, replicate 1": -0.1}
{"Gene": "CG42673 (GeneID 39111)", "reagent": 2, "z-score, replicate 1": -0.5}
{"Gene": "CG42673 (GeneID 39111)", "reagent": 3, "z-score, replicate 1": -0.4}
{"Gene": "CG42673 (GeneID 39111)", "reagent": 4, "z-score, replicate 1": -0.4}
{"Gene": "CG42673 (GeneID 39111)", "reagent": 5, "z-score, replicate 1": -0.1}
{"Gene": "CG42673 (GeneID 39111)", "reagent": 6, "z-score, replicate 1": -0.3}
{"Gene": "Gr93a (GeneID 42568)", "reagent": 1, "z-score, replicate 1": 0.8}
{"Gene": "CG33679 (GeneID 3772494)", "reagent": 1, "z-score, replicate 1": -0.1}
{"Gene": "Cpr66D (GeneID 38990)", "reagent": 1, "z-score, replicate 1": 0.7}
{"Gene": "Cpr66D (GeneID 38990)", "reagent": 2, "z-score, replicate 1": 3.9}
{"Gene": "Fis1 (GeneID 49892)", "reagent": 1, "z-score, replicate 1": -0.4}
{"Gene": "CG6729 (GeneID 34484)", "reagent": 1, "z-score, replicate 1": -0.4}
{"Gene": "CG31323 (GeneID 318682)", "reagent": 1, "z-score, replicate 1": -0.4}
{"Gene": "CG8349 (GeneID 34124)", "reagent": 1, "z-score, replicate 1": -0.3}
{"Gene": "Pcf11 (GeneID 36658)", "reagent": 1, "z-score, replicate 1": 1}
{"Gene": "CG13667 (GeneID 38956)", "reagent": 1, "z-score, replicate 1": -0.1}
{"Gene": "CG10252 (GeneID 42794)", "reagent": 1, "z-score, replicate 1": -0.1}
{"Gene": "CG33310 (GeneID 2768910)", "reagent": 1, "z-score, replicate 1": -0.2}
{"Gene": "BobA (GeneID 50281)", "reagent": 1, "z-score, replicate 1": -0.3}
{"Gene": "CG7794 (GeneID 42159)", "reagent": 1, "z-score, replicate 1": -1}
{"Gene": "Rab9 (GeneID 35221)", "reagent": 1, "z-score, replicate 1": -0.4}
{"Gene": "CG11594 (GeneID 38473)", "reagent": 1, "z-score, replicate 1": -0.4}
{"Gene": "CG31441 (GeneID 326139)", "reagent": 1, "z-score, replicate 1": -0.3}
{"Gene": "Alg11 (GeneID 40402)", "reagent": 1, "z-score, replicate 1": -0.2}
{"Gene": "Dg (GeneID 36773)", "reagent": 1, "z-score, replicate 1": -0.2}
{"Gene": "CG2218 (GeneID 43611)", "reagent": 1, "z-score, replicate 1": -0.3}
{"Gene": "CG7675 (GeneID 42211)", "reagent": 1, "z-score, replicate 1": -0.2}
{"Gene": "CG15445 (GeneID 33094)", "reagent": 1, "z-score, replicate 1": -0.3}
{"Gene": "CG10232 (GeneID 42800)", "reagent": 1, "z-score, replicate 1": -0.1}
{"Gene": "GrlHz (GeneID 37648)", "reagent": 1, "z-score, replicate 1": -0.2}
{"Gene": "CG1161 (GeneID 40638)", "reagent": 1, "z-score, replicate 1": 5.2}
{"Gene": "Jhbp1 (GeneID 40613)", "reagent": 1, "z-score, replicate 1": -0.2}
{"Gene": "CG33013 (retired record) (GeneID 318830)", "reagent": 1, "z-score, replicate 1": -0.2}
{"Gene": "beat-Ia (GeneID 34947)", "reagent": 1, "z-score, replicate 1": -0.3}
{"Gene": "Tat (GeneID 32381)", "reagent": 1, "z-score, replicate 1": -0.4}

No new results follow: 2 of the entries above.
{"Gene": "Jhbp1 (GeneID 40613)", "reagent": 1, "z-score, replicate 1": -0.2}
{"Gene": "CG33013 (retired record) (GeneID 318830)", "reagent": 1, "z-score, replicate 1": -0.2}
